The values that follow come from article PMC5669953.

By UniProt entry, the sequences of proteins in these tests, tags left out. Residues count along the entry.
UniProt P05362, residues 28-532: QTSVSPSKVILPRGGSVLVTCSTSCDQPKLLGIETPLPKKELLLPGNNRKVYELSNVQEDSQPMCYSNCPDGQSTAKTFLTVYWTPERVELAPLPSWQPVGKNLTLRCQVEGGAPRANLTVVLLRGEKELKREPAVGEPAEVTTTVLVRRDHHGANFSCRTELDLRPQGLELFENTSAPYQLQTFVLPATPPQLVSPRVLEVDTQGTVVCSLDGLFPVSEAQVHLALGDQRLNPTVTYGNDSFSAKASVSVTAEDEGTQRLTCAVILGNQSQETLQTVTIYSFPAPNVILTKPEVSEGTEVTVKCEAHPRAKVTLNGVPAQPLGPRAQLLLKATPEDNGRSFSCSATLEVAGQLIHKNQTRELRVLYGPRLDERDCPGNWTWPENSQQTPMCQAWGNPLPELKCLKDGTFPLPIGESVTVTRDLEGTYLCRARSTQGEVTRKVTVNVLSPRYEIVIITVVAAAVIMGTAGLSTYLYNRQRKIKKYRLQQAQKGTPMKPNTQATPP
UniProt Q9UKT5: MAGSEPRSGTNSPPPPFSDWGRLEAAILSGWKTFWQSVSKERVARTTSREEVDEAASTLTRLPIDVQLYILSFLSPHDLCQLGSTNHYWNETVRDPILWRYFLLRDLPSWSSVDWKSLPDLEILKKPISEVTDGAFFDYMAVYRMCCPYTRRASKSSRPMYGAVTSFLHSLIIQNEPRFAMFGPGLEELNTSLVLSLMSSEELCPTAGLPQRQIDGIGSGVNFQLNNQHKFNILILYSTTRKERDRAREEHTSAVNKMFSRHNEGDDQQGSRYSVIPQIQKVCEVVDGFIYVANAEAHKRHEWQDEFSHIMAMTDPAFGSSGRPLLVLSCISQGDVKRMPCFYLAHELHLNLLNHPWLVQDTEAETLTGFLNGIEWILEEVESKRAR

No constants are given. Whether binding was seen depends on the method and setting. Binding seen in cells or lysates may run through a third protein. Some binding calls cover weakened binding; strength is not graded here.

Experiment [1] addresses ICAM-1-HA (UniProt P05362). Kind of experiment: proximity ligation; in situ PLA (Duolink) in fixed, permeabilised HEK293T cells transfected with ICAM-1-HA and FBXO4-Myc, 10 μM MG132 for 6 h; anti-Myc rabbit and anti-HA mouse primary antibodies; confocal microscopy.
Experiment [2] deals with Intercellular adhesion molecule-1 (ICAM-1), endogenous (human (endogenous in MDA-MB-231)) (UniProt P05362). Kind of experiment: co-IP; endogenous proteins in lysate of metastatic breast cancer cells after treatment with a proteasome inhibitor; lysis buffer 40 mM Tris-HCl pH 8.0, 120 mM NaCl, 0.1% Nonidet-P40; primary antibody overnight at 4°C, Protein A-Agarose beads 2 h; western blot. (In general: In western blotting, separated proteins are transferred to a membrane and probed.)

Experiment [3] deals with ICAM-1-HA (UniProt P05362). Briefly: co-IP; HEK293T cells co-transfected for 48 hours with HA-tagged ICAM-1 constructs and FBXO4-Flag, MG132 for 6 hours before lysis; lysis buffer 40 mM Tris-HCl pH 8.0, 120 mM NaCl, 0.1% Nonidet-P40; Protein A-Agarose beads; western blot with anti-HA or anti-Flag.

For FBXO4-Myc (from UniProt Q9UKT5 1-387), the binding entry with ICAM-1-HA [1] is “binds”. In the case of “E3 ligase FBXO4 (F-box protein), endogenous (from UniProt Q9UKT5 1-387)”, in experiment [2], the binding entry is listed as “binds”. Turning to FBXO4-Flag (from UniProt Q9UKT5 1-387), the binding result with ICAM-1-HA [3] was “binds”.
